Test results as given in paper PMC3045356.

Chains of the proteins cited; added tags and fusions are not shown. Lines headed by an entry give the natural chain unless they say otherwise; changes in a name come on top.
UniProt P50591: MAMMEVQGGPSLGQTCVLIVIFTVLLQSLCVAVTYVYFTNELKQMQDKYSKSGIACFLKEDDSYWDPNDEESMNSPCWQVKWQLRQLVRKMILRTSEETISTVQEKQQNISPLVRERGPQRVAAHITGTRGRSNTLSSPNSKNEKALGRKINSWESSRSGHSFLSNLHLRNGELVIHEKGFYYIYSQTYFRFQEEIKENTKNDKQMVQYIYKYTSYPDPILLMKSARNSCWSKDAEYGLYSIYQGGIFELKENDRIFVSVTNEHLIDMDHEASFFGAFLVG
UniProt Q14790: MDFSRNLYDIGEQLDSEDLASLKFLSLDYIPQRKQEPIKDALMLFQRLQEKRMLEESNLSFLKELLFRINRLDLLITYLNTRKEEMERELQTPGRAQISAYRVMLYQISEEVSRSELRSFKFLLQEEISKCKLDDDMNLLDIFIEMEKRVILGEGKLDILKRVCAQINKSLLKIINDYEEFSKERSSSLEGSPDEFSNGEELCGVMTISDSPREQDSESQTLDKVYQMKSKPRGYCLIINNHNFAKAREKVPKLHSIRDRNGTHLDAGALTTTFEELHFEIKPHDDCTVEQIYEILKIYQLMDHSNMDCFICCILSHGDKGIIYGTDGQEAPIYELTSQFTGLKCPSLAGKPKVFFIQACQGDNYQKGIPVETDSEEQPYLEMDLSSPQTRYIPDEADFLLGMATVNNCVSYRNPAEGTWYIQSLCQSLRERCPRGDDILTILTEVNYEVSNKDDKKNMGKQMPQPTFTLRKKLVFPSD
UniProt Q13158: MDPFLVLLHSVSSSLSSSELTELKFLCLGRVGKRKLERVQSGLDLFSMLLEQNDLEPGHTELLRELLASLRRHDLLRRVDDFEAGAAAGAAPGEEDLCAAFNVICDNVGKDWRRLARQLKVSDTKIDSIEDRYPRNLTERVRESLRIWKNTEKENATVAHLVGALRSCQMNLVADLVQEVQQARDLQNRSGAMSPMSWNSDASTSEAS

Target: Recombinant human soluble flag-tagged TRAIL (human) (UniProt P50591)
Assay: co-IP; TRAIL-DISC: SW948 or SW948-TR cells stimulated 30 min at 37°C with 500 ng/ml Flag-tagged TRAIL premixed with 1.5 μg/ml anti-Flag M2; lysis in 1% Nonidet P-40, 150 mM NaCl, 30 mM Tris-HCl pH 7.5; precipitated with protein-A sepharose; Western blot for DR4, DR5, FADD, caspase 8, c-FLIP; only the target purified

| binding | Substance |
| --- | --- |
| binds | Caspase 8 (from UniProt Q14790 1-479) (enzyme) |
| binds | FADD (from UniProt Q13158 1-208) |

Results are given in words; binding and its absence hold for the method and conditions named. Binding seen in cells or lysates may run through a third protein. Binding calls can cover weak binding; strength is not graded here.
